The exact form of at least one protein or probe is not confirmed.
How the values were obtained:
GST-Ghd7 (Oryza sativa) = GST-Ghd7 (Oryza sativa) (UniProt E5RQA1); assay: EMSA; settings: increasing OsNAC42 first strengthens, then weakens binding; LightShift Chemiluminescent EMSA kit (Thermo 20148), per manufacturer; pH and temperature not …; recombinant protein; protein details: GST; label: 5' biotin
[1] = system: SUMO-NAC42-His (Oryza sativa); assay: EMSA; settings: increasing Ghd7 first strengthens, then weakens binding; LightShift Chemiluminescent EMSA kit (Thermo 20148), per manufacturer; pH and temperature not stated; recombinant protein; protein details: SUMO, His; label: 5' biotin

Protein sequences, listed by entry. Tags and fused reporters are not part of them. Lines headed by an entry give the natural chain unless they say otherwise; changes in a name come on top.
UniProt E5RQA1: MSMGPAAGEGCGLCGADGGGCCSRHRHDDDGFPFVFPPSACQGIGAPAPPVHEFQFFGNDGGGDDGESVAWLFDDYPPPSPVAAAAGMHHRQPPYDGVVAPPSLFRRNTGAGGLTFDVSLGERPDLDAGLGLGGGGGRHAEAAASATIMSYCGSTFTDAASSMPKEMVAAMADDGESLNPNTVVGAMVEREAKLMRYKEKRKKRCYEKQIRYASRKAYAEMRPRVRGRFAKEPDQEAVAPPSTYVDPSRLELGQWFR

Sequence: CTCCACATCTCTTCTCCATCAAGAATCAATCACTCGCTC (double strand) [OsChalk5 promoter probe]
- binding result (GST-Ghd7 (Oryza sativa)): binds
- binding result [1]: binds

Source: PMC12376526
